The values that follow are results of earlier work, collected in patent publication US11291651B2, “Glycopyrrolate salts” (Journey Medical Corporation, priority 2013, dated 2022).

The data set relates to hyperhidrosis. The conditions noted are these: topically applied; compared with aluminum chloride; cited from earlier work.

With `C[N+]1(C)CCC(OC(=O)C(O)(c2ccccc2)C2CCCC2)C1` (stereo not shown) [glycopyrrolate bromide, glycopyrronium bromide], the skin irritation entry is reported as “less skin irritation”.
